Reference: US10047050B2, “3,4-di-substituted pyridine compound, methods of using and compositions comprising the same” (ARDEA BIOSCIENCES, INC., priority 2011, dated 2018)
“And” between values parts separate entries of the source, which are not always exact repeats. Equal values may be shown once. The source gives many values for each of these; only a part stands here.

Test system: serum uric acid
Test: Multi-dose Phase I clinical trial, serum uric acid (sUA), once daily for 10 days
Format: in vivo, human
Settings: group 9, 10 mg once daily for 10 days, individual subjects 3-11 (active)
Text: A Phase 1, Randomized, Double-Blind, Placebo-Controlled Study to Evaluate Safety, Tolerability, Pharmacokinetics and Preliminary Food Effect of Multiple Rising Doses of a URAT1 Inhibitor, in Healthy Adult Male Volunteers.
Fasted subjects receive oral doses of active or placebo, once daily, for 10 days, at the following doses:
36 subjects in 3 dose groups, 12 subjects/group, are randomized […] to receive active (9/group) or placebo ([…]). All study procedures are the same regardless of whether subject receives active or placebo. Total duration of subject participation, including screening period, is ˜2-4 weeks, and the total volume of blood collected from each subject during the entire study <500 mL, (less than typically collected during a volunteer blood donation).
5 mg, active and placebo, tablets packaged in 35 count HDPE bottles, stored at controlled room temperature (15-30° C.). Placebo tablets are designed to match the active tablets—identical size, form, taste, and color, and containing the same excipients. 1 mg doses were administered as oral solutions.
Subjects dosed in the morning of Days 1-10 with ˜240 mL of room temp water.
Urine, serum and plasma samples collected periodically
PD samples frozen (−20° C.) and stored; all samples from a given subject assayed in a single analytical run.

CC(C)(Sc1ccncc1-c1ccc(C#N)c2ccccc12)C(=O)O [2-((3-(4-cyanonaphthalen-1-yl)pyridin-4-yl)thio)-2-methylpropanoic acid]
% sUA change (from baseline) (Time 0 (baseline)): 0% | Absolute sUA concentration (Time 0 (baseline)): 5.4 mg/dL and 5.2 mg/dL and 8.0 mg/dL and 7.3 mg/dL and 6.8 mg/dL and 6.6 mg/dL and 6.4 mg/dL and 6.2 mg/dL and 5.6 mg/dL | % sUA change (from baseline) (Time 6): −25.9% and −32.7% and −22.5% and −28.8% and −31.8% and −35.9% and −35.3% and −32.3% and −26.8% | Absolute sUA concentration (Time 6): 4.0 mg/dL and 3.5 mg/dL and 6.2 mg/dL and 5.2 mg/dL and 4.4 mg/dL and 4.5 mg/dL and 4.1 mg/dL (2×) and 4.2 mg/dL | % sUA change (from baseline) (Time 12): −29.6% and −42.3% and −18.8% and −35.6% and −39.7% and −51.5% and −45.3% and −35.7% and −32.3% | Absolute sUA concentration (Time 12): 3.8 mg/dL and 3.0 mg/dL and 6.5 mg/dL and 4.7 mg/dL and 4.1 mg/dL and 3.2 mg/dL and 3.5 mg/dL and 4.2 mg/dL and 3.6 mg/dL | % sUA change (from baseline) (Time 24): −33.3% and −38.5% and −15.0% and −28.8% and −41.2% and −50.0% and −34.4% and −32.3% and −14.3% | Absolute sUA concentration (Time 24): 3.6 mg/dL and 3.2 mg/dL and 6.8 mg/dL and 5.2 mg/dL and 4.0 mg/dL and 3.3 mg/dL and 4.2 mg/dL (2×) and 4.8 mg/dL | % sUA change (from baseline) (Time 48): −37.0% and −36.5% and −31.3% (2×) and −30.1% and −51.5% and −45.5% and −35.5% and −16.1% | Absolute sUA concentration (Time 48): 3.4 mg/dL and 3.3 mg/dL (2×) and 5.5 mg/dL and 5.1 mg/dL and 3.6 mg/dL and 4.4 mg/dL and 4.0 mg/dL and 4.7 mg/dL | % sUA change (from baseline) (Time 72): −51.9% and −57.7% and −45.0% and −45.2% and −60.3% and −54.5% and −43.8% and −51.6% and −37.5% | Absolute sUA concentration (Time 72): 2.6 mg/dL and 2.2 mg/dL and 4.4 mg/dL and 4.0 mg/dL and 2.7 mg/dL and 3.0 mg/dL (2×) and 3.6 mg/dL and 3.5 mg/dL | % sUA change (from baseline) (Time 96): −53.7% and −57.7% and −51.3% and −49.3% and −66.2% and −56.1% and −51.6% and −54.8% and −42.9% | Absolute sUA concentration (Time 96): 2.5 mg/dL and 2.2 mg/dL and 3.9 mg/dL and 3.7 mg/dL and 2.3 mg/dL and 2.9 mg/dL and 3.1 mg/dL and 2.8 mg/dL and 3.2 mg/dL | % sUA change (from baseline) (Time 102): −50.0% (2×) and −65.4% and −51.3% and −57.5% and −64.7% and −54.5% and −46.9% and −56.5% | Absolute sUA concentration (Time 102): 2.7 mg/dL (2×) and 1.8 mg/dL and 3.9 mg/dL and 3.1 mg/dL and 2.4 mg/dL and 3.0 mg/dL and 3.4 mg/dL and 2.8 mg/dL | % sUA change (from baseline) (Time 108): −50.0% (2×) and −63.5% and −51.3% and −58.9% and −69.1% and −65.2% and −51.6% and −54.8% | Absolute sUA concentration (Time 108): 2.7 mg/dL and 1.9 mg/dL and 3.9 mg/dL and 3.0 mg/dL and 2.1 mg/dL and 2.3 mg/dL and 3.1 mg/dL and 2.8 mg/dL (2×) | % sUA change (from baseline) (Time 120): −46.3% and −51.9% and −42.5% and −47.9% and −60.3% and −56.1% and −40.6% and −41.9% and −35.7% | Absolute sUA concentration (Time 120): 2.9 mg/dL (2×) and 2.5 mg/dL and 4.6 mg/dL and 3.8 mg/dL (2×) and 2.7 mg/dL and 3.6 mg/dL (2×) | % sUA change (from baseline) (Time 144): −44.4% and −50.0% and −40.0% and −52.1% and −58.8% and −53.0% and −40.6% and −24.2% and −35.7% | Absolute sUA concentration (Time 144): 3.0 mg/dL and 2.6 mg/dL and 4.8 mg/dL and 3.5 mg/dL and 2.8 mg/dL and 3.1 mg/dL and 3.8 mg/dL and 4.7 mg/dL and 3.6 mg/dL | % sUA change (from baseline) (Time 168): −53.7% and −53.8% and −38.7% and −56.2% and −64.7% and −56.1% and −48.4% and −33.9% and −41.1% | Absolute sUA concentration (Time 168): 2.5 mg/dL and 2.4 mg/dL (2×) and 4.9 mg/dL and 3.2 mg/dL and 2.9 mg/dL and 3.3 mg/dL (2×) and 4.1 mg/dL | % sUA change (from baseline) (Time 192): −57.4% and −57.7% and −47.5% and −58.9% and −70.6% and −65.2% and −50.0% (2×) and −44.6% | Absolute sUA concentration (Time 192): 2.3 mg/dL (2×) and 2.2 mg/dL and 4.2 mg/dL and 3.0 mg/dL and 2.0 mg/dL and 3.2 mg/dL and 3.1 mg/dL (2×) | % sUA change (from baseline) (Time 216): −51.9% (2×) and −43.8% and −56.2% and −64.7% and −56.1% and −48.4% and −37.5% | Absolute sUA concentration (Time 216): 2.6 mg/dL and 2.5 mg/dL and 4.5 mg/dL and 3.2 mg/dL (2×) and 2.4 mg/dL and 2.9 mg/dL and 3.5 mg/dL | % sUA change (from baseline) (Time 222, post dosing): −51.9% and −55.8% and −51.3% and −64.4% and −69.1% and −60.6% and −56.5% and −39.3% | Absolute sUA concentration (Time 222, post dosing): 2.6 mg/dL (3×) and 2.3 mg/dL and 3.9 mg/dL and 2.1 mg/dL and 2.7 mg/dL and 3.4 mg/dL | % sUA change (from baseline) (Time 228, post dosing): −50.0% and −55.8% and −53.8% and −67.1% and −69.1% and −65.2% and −54.7% and −59.7% and −44.6%
